In patent US20090215877A1:
No constants are given. Whether binding was seen depends on the method and setting. In cells and extracts the contact can be indirect. Some entries that bind do so weakly or less than the wild type.

Protein sequences, listed by entry. Tags and fused reporters are not part of them. Lines headed by an entry give the natural chain unless they say otherwise; changes in a name come on top. Residues count along the entry.
UniProt P15087, residues 43-476: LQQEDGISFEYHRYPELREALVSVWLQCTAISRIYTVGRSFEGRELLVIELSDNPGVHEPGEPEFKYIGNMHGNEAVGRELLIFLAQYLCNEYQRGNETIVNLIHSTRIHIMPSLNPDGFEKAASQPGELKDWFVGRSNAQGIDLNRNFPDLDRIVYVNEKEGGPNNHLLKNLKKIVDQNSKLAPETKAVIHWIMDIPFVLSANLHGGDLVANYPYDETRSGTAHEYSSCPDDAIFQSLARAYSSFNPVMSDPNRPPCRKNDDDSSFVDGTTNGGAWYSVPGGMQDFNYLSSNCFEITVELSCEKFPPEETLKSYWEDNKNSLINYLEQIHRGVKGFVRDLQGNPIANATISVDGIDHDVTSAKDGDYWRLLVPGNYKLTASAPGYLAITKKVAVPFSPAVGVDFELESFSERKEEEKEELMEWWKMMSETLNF
UniProt O54960: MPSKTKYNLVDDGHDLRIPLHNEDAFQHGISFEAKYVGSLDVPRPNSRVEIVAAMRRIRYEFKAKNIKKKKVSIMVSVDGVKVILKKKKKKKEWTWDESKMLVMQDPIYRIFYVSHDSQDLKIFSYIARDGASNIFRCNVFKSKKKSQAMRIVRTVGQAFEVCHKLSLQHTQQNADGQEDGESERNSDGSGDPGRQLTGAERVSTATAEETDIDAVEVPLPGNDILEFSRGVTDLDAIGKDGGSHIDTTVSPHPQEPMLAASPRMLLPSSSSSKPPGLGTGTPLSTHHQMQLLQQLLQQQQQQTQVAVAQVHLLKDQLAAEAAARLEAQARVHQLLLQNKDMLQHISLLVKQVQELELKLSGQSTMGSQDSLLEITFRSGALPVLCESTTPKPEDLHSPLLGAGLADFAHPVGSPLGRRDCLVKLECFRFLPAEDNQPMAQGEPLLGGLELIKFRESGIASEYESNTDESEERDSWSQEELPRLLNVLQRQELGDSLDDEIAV
UniProt O75052: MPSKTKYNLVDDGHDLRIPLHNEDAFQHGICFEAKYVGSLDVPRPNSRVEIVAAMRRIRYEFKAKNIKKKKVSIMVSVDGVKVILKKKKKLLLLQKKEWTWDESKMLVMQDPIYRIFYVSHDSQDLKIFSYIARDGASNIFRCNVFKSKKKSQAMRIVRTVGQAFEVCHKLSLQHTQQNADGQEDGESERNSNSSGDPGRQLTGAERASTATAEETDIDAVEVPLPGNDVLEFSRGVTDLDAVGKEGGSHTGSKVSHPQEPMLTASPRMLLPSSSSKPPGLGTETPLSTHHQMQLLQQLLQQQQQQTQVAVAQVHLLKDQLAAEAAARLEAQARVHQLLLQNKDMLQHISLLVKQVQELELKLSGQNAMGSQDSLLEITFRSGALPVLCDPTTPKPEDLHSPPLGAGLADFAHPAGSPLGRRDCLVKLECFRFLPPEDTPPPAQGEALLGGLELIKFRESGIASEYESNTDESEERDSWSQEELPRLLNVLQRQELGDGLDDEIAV

Key:
[1] = molecular target: carboxypeptidase E (CPE) from rat brain lysate (rat) (UniProt P15087); assay: co-immunoprecipitation and GST pull-down from rat brain lysate (FIG. 12 legend)
[2] = molecular target: hippocalcin-like 1 from rat brain extract (rat) (UniProt P62749); assay: co-immunoprecipitation from rat brain extract, Western blot (FIG. 18 legend)
[3] = molecular target: carboxypeptidase E (CPE) from rat brain lysate (rat) (UniProt P15087); assay: co-immunoprecipitation and GST pull-down (FIG. 12)
[4] = molecular target: hippocalcin-like 1 from rat brain extract (rat) (UniProt P62749); assay: co-immunoprecipitation from rat brain extract; assay for direct binding not described
[5] = molecular target: carboxypeptidase E (CPE) from rat brain lysate (rat) (UniProt P15087); assay: co-immunoprecipitation from rat brain lysate with anti-NOS1AP, blot for CPE
[6] = molecular target: carboxypeptidase E (CPE) from rat brain lysate (rat) (UniProt P15087); assay: GST pull-down from rat brain lysate, blot for CPE

Measured: binding

NOS1AP from rat brain lysate (endogenous) (from UniProt O54960 1-503)
not listed: [6]
binds: all other assays above

fusion protein containing GST and NOS1AP-186-312 (from UniProt O75052 186-312)
binds: [6]
